Test results from publication PMC11140001.
These are yes or no findings as the source states them, for the method shown. In cells and extracts the contact can be indirect. Some results given as binding are weak or reduced against the parent protein; the word gives no strength.

The chains behind the UniProt entries cited, without tags or fusion partners.
UniProt Q92830: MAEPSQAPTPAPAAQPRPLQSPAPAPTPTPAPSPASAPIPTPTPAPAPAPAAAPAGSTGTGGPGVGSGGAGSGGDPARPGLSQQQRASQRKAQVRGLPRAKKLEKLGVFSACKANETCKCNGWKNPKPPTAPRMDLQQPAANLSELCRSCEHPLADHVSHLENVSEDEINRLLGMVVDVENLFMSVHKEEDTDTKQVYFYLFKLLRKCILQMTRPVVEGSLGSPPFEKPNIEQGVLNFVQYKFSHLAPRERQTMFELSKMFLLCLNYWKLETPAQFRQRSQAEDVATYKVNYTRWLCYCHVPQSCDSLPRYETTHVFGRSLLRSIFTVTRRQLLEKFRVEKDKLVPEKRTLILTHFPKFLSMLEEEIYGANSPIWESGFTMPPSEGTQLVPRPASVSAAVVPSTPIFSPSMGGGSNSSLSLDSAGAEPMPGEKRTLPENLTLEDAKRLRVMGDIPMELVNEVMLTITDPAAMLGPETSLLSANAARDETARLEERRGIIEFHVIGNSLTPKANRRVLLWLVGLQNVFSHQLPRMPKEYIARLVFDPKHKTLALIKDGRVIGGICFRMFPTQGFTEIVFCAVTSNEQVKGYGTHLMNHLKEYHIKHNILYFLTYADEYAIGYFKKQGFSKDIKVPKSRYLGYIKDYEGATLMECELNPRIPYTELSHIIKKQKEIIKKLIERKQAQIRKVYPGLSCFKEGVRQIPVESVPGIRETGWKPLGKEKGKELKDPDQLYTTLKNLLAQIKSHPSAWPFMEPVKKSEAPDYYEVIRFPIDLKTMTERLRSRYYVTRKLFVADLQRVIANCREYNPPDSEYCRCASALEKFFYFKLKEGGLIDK

Biological target: T1, CBX4 (human (endogenous in A549)) (UniProt O00257)
T1 sequence: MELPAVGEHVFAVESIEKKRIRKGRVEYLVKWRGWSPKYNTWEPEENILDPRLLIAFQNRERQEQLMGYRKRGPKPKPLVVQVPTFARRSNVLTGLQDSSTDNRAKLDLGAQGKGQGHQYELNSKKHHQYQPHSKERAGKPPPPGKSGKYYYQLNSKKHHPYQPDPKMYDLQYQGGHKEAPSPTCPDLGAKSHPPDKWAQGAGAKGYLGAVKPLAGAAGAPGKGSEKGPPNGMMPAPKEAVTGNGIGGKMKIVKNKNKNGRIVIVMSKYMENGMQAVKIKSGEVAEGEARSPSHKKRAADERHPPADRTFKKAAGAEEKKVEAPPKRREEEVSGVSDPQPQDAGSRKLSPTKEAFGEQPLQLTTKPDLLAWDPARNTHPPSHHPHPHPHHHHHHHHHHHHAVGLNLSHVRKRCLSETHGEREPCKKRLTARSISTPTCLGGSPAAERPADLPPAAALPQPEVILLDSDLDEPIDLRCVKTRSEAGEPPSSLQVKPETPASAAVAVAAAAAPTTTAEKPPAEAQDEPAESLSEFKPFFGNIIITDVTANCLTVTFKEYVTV
Test: co-IP; endogenous co-immunoprecipitation from A549 cell lysate with anti-CBX4 or anti-GCN5 (normal IgG as control), protein A/G magnetic beads, 4 °C; lysis buffer 50 mM Tris-HCl pH 7.4, 150 mM NaCl, 1 mM EDTA, 0.5% Triton X-100; Western blotting

## GCN5 (from UniProt Q92830 1-837)
  binding: binds
